The target in experiment [1] is Mcm6 of the Mcm4/6/7 hexamer expressed and purified from insect cells (UniProt P49731). Description: SEC; gel filtration profile of Mcm4/6/7 hexamers expressed and purified from insect cells; both purified. (In general: SEC sorts molecules by how far they enter the pores of the column.)
Experiment [2] addresses T1, Mcm7 of the Mcm4/6/7 hexamer expressed and purified from insect cells (UniProt O75001).
T1 sequence: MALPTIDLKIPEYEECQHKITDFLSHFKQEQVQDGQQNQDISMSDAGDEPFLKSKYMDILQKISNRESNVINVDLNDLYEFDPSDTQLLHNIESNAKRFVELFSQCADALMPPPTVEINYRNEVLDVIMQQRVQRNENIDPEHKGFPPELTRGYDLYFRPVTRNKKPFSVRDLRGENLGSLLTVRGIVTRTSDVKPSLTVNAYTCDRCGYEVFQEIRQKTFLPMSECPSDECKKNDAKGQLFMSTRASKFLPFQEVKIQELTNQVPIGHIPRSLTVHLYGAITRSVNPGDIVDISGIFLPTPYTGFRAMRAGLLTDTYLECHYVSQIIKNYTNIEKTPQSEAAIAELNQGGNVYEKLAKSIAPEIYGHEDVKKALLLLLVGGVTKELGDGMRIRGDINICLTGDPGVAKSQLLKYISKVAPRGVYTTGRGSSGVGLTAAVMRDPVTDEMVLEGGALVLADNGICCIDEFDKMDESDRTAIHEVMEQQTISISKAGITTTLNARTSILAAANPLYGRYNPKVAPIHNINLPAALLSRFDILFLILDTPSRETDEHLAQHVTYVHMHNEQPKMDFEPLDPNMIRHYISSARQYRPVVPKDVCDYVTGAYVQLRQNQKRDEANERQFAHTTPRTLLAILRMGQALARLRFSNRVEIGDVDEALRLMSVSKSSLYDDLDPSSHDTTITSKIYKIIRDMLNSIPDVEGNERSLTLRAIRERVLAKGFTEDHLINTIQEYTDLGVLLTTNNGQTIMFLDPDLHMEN
Described as above.

Chains of the proteins cited; added tags and fusions are not shown.
UniProt P49731: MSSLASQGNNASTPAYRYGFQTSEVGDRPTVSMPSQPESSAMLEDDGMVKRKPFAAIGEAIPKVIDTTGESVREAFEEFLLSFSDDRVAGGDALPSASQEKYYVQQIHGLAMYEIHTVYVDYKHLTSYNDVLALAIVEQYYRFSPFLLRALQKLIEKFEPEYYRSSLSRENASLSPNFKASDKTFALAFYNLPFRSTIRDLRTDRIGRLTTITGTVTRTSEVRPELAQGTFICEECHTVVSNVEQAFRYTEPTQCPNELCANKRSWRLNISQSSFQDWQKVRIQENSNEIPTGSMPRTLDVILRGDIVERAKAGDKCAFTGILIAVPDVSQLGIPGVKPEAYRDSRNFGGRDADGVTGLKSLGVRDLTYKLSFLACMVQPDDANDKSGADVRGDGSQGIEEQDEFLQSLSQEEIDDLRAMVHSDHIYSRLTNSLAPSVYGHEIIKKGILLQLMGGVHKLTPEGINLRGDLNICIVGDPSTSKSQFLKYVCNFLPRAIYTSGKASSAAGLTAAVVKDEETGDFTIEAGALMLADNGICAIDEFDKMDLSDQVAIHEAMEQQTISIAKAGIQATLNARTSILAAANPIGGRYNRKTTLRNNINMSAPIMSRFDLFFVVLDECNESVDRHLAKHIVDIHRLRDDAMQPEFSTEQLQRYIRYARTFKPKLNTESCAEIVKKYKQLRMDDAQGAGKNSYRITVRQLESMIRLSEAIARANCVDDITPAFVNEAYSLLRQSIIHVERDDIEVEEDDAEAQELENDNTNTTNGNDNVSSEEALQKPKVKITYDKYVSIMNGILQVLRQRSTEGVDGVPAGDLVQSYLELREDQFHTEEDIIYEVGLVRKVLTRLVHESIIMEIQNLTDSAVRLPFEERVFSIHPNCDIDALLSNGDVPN

These are yes or no findings as the source states them, for the method shown. Some binding calls cover weakened binding; strength is not graded here.

B1: Mcm4 of the Mcm4/6/7 hexamer expressed and purified from insect cells (protein, UniProt P29458 1-911)
chain: MSSSQQSGRANELRTPGRANSSSREAVDSSPLFFPASSPGSTRLTTPRTTARTPLASSPLLFESSSPGPNIPQSSRSHLLSQRNDLFLDSSSQRTPRSTRRGDIHSSVQMSTPSRRREVDPQRPGVSTPSSLLFSGSDALTFSQAHPSSEVADDTVRVIWGTNVSIQESIASFRGFLRGFKKKYRPEYRNELMPPPDAEQLVYIEALRNMRIMGLEILNLDVQDLKHYPPTKKLYHQLYSYPQEIIPIMDQTIKDVMLDLLGTNPPEDVLNDIELKIYKIRPFNLEKCINMRDLNPGDIDKLISIKGLVLRCTPVIPDMKQAFFRCSVCGHCVTVEIDRGRIAEPIKCPREVCGATNAMQLIHNRSEFADKQVIKLQETPDVVPDGQTPHSVSLCVYDELVDSARAGDRIEVTGIFRCVPVRLNPRMRTVKSLFKTYVDVVHIKKQDKRRLGTDPSTLESDIAEDAALQIDEVRKISDEEVEKIQQVSKRDDIYDILSRSLAPSIYEMDDVKKGLLLQLFGGTNKSFHKGASPRYRGDINILMCGDPSTSKSQILKYVHKIAPRGVYTSGKGSSAVGLTAYITRDQDTKQLVLESGALVLSDGGICCIDEFDKMSDATRSILHEVMEQQTVTVAKAGIITTLNARTSILASANPIGSKYNPDLPVTKNIDLPPTLLSRFDLVYLILDRVDETLDRKLANHIVSMYMEDTPEHATDMEVFSVEFLTSYITYARNNINPVISEEAAKELVNAYVGMRKLGEDVRASEKRITATTRQLESMIRLSEAHAKMHLRNVVEVGDVLEAARLIKTAIKDYATDPATGKISLDLIYVNERETLVPEDMVKELANLISNLTVGGKTMLVSQLLTRFREQSSTRLDASDFEACLGALERRGRIKVITSAGHRIVRSIAQTD
On to B1, for which the binding result in experiment [1] and in experiment [2] was “binds” each time.

B2: Mcm7 of the Mcm4/6/7 hexamer expressed and purified from insect cells (protein, UniProt O75001 1-760)
chain: MALPTIDLKIPEYEECQHKITDFLSHFKQEQVQDGQQNQDISMSDAGDEPFLKSKYMDILQKISNRESNVINVDLNDLYEFDPSDTQLLHNIESNAKRFVELFSQCADALMPPPTVEINYRNEVLDVIMQQRVQRNENIDPEHKGFPPELTRGYDLYFRPVTRNKKPFSVRDLRGENLGSLLTVRGIVTRTSDVKPSLTVNAYTCDRCGYEVFQEIRQKTFLPMSECPSDECKKNDAKGQLFMSTRASKFLPFQEVKIQELTNQVPIGHIPRSLTVHLYGAITRSVNPGDIVDISGIFLPTPYTGFRAMRAGLLTDTYLECHYVSQIIKNYTNIEKTPQSEAAIAELNQGGNVYEKLAKSIAPEIYGHEDVKKALLLLLVGGVTKELGDGMRIRGDINICLTGDPGVAKSQLLKYISKVAPRGVYTTGRGSSGVGLTAAVMRDPVTDEMVLEGGALVLADNGICCIDEFDKMDESDRTAIHEVMEQQTISISKAGITTTLNARTSILAAANPLYGRYNPKVAPIHNINLPAALLSRFDILFLILDTPSRETDEHLAQHVTYVHMHNEQPKMDFEPLDPNMIRHYISSARQYRPVVPKDVCDYVTGAYVQLRQNQKRDEANERQFAHTTPRTLLAILRMGQALARLRFSNRVEIGDVDEALRLMSVSKSSLYDDLDPSSHDTTITSKIYKIIRDMLNSIPDVEGNERSLTLRAIRERVLAKGFTEDHLINTIQEYTDLGVLLTTNNGQTIMFLDPDLHMEN
For B2, the binding entry in experiment [1] is “binds”.

The values above are taken from article PMC3605359, “Expression, purification and biochemical characterization of Schizosaccharomyces pombe Mcm4, 6 and 7” (BMC Biochemistry, 2013).
